From PMC8184817, “Transmission of light signals from the light-oxygen-voltage core via the hydrophobic region of the β-sheet surface in aureochrome-1” (Scientific Reports, 2021)

Assays:
Assay in all cases: EMSA; QCM
[1] = molecular target: T1, PZ F299V C162S,C182S,F299V (UniProt A8QW55); conditions: EMSA: 5% polyacrylamide gel, 25 C, dark or blue light 5 W/m2, recombinant protein, residues 113-348, label: Alexa Fluor647 (EMSA), biotin (QCM)
T1 sequence (looked up): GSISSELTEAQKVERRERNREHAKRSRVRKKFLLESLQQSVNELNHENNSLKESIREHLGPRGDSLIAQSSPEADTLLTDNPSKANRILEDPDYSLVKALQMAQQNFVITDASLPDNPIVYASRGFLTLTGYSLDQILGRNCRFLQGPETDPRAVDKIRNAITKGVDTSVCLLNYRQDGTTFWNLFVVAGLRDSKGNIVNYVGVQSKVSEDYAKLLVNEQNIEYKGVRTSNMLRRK

[2] = molecular target: T2, PZ V314A C162S,C182S,V314A (UniProt A8QW55); conditions: blue light; EMSA: 5% polyacrylamide gel, 25 C, dark or blue light 5 W/m2; recombinant protein; residues 113-348; label: Alexa Fluor647 (EMSA), biotin (QCM)
T2 sequence (looked up): T1 sequence (looked up) with V187F, V202A

[3] = molecular target: T3, PZ F219V C162S,C182S,F219V (UniProt A8QW55); conditions: blue light; EMSA: 5% polyacrylamide gel, 25 C, dark or blue light 5 W/m2; recombinant protein; residues 113-348; label: Alexa Fluor647 (EMSA), biotin (QCM)
T3 sequence (looked up): T1 sequence (looked up) with F107V, V187F

[4] = molecular target: T4, PZ V316A C162S,C182S,V316A (UniProt A8QW55); conditions: blue light; EMSA: 5% polyacrylamide gel, 25 C, dark or blue light 5 W/m2; recombinant protein; residues 113-348; label: Alexa Fluor647 (EMSA), biotin (QCM)
T4 sequence (looked up): T1 sequence (looked up) with V187F, V204A

[5] = molecular target: T5, PZ L201A/L208A/L212A (triple) C162S,C182S,L201A,L208A,L212A (UniProt A8QW55); conditions: blue light; EMSA: 5% polyacrylamide gel, 25 C, dark or blue light 5 W/m2; recombinant protein; residues 113-348; label: Alexa Fluor647 (EMSA), biotin (QCM)
T5 sequence (looked up): T1 sequence (looked up) with L89A, L96A, L100A, V187F

[6] = molecular target: T6, PZ L303A C162S,C182S,L303A (UniProt A8QW55); conditions: EMSA: 5% polyacrylamide gel, 25 C, dark or blue light 5 W/m2, recombinant protein, residues 113-348, label: Alexa Fluor647 (EMSA), biotin (QCM)
T6 sequence (looked up): T1 sequence (looked up) with V187F, L191A

Measured: binding result

GCTGTCTGACGTCAGACAGC (double strand) [dsApo]
binds more weakly: [1]; blue light, high EC50 | [6]; blue light, high EC50
binds: [1]; dark state | [2] | [3] | [4] | [5] | [6]; dark state

Where a chain is given by its changes, count along the chain named. Construct, isoform or probe ends are uncertain for at least one entry. For some assays here: The comparison behind a weaker result is the experiment's own reference, which may not be listed here. Tags and fusion partners may be left off the protein sequences shown. At least one verdict rests on a figure or table, not on a statement of the authors.
